# Data taken from the supplement of paper PMC6411743.
# ± gives the standard deviation of the averaged measurements. The list shows a part of the results.
# Columns and labels:
# Test in all cases: NP40-soluble protein abundance relative to vehicle (solubility fold change) (ratio); higher = more soluble protein in presence of GTP
# [1] = molecular target: T1, ANKMY2 (UniProt Q8IV38)
# T1 sequence (whole entry): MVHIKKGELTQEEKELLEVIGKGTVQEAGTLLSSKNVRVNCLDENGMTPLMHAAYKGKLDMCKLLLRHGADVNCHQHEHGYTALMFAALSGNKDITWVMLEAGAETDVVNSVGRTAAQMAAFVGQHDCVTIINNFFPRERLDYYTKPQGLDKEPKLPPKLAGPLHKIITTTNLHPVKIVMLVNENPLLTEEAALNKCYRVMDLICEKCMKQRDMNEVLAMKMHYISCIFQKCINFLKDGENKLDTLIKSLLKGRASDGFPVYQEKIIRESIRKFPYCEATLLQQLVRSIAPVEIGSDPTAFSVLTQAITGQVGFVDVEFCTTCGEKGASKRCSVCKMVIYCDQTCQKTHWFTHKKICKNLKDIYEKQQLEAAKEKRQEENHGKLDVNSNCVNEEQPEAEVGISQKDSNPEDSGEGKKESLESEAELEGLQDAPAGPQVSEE
# Procedure, shortened: (§1)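 Eight concentrations, 0.1 to 10 mM, were tested on Jurkat crude lysate for 10 min at room temperature and then 3 min at 37 °C, in three independent experiments. The lysate was solubilised with 0.8% NP40 and benzonase, ultracentrifuged, and the supernatant TMT-labelled for LC-MS/MS. Each value is the fold change against the detergent-processed vehicle in its own replicate, from vsn-normalised intensities.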
# [2] = molecular target: T2, C2orf69 (UniProt Q8N8R5)
# T2 sequence (whole entry): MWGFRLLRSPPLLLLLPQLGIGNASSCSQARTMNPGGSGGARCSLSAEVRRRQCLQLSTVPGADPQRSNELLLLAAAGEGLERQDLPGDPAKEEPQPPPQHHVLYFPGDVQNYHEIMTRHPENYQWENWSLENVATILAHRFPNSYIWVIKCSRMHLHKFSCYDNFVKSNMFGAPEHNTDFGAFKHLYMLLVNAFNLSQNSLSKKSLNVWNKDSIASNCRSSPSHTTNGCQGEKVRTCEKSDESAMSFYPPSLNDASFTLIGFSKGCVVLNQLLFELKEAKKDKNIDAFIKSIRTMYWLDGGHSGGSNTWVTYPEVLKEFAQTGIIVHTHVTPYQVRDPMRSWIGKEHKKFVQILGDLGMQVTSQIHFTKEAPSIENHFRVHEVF
# Procedure, shortened: as §1
# [3] = molecular target: T3, CBR4 (UniProt Q8N4T8)
# T3 sequence (whole entry): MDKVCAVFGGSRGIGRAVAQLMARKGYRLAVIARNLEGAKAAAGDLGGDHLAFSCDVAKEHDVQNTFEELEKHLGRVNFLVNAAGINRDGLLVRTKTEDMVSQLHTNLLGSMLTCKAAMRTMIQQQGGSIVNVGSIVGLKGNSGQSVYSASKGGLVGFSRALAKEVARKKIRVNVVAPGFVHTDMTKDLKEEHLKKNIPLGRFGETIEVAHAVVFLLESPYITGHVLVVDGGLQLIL
# Procedure, shortened: as §1
# [4] = molecular target: T4, COG1 (UniProt Q8WTW3)
# T4 sequence (whole entry): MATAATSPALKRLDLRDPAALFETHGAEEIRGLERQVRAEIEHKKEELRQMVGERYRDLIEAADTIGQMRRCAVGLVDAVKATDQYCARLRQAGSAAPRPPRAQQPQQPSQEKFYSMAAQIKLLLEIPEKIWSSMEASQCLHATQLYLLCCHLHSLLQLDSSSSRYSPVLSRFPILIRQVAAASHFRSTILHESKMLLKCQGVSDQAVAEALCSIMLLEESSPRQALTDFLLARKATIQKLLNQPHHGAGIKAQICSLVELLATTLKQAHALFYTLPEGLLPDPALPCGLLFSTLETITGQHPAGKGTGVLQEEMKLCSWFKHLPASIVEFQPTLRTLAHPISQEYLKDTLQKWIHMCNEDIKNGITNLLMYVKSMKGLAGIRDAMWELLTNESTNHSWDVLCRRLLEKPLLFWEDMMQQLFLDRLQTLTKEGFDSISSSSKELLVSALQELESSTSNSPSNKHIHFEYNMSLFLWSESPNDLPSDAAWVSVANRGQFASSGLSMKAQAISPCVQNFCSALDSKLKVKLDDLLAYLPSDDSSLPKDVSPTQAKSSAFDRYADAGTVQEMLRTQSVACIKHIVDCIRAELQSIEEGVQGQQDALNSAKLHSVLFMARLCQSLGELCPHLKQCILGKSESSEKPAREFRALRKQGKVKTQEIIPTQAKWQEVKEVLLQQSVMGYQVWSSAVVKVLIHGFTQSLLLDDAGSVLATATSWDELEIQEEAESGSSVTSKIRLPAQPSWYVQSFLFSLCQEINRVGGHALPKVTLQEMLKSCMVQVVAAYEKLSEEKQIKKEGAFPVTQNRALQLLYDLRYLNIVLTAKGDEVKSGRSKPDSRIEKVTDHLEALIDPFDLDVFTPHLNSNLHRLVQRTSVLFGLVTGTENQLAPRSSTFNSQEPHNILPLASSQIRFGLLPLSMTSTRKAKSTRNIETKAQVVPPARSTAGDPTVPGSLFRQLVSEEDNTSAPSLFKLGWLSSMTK
# Procedure, shortened: as §1
# [5] = molecular target: T5, NHLRC2 (UniProt Q8NBF2)
# T5 sequence (whole entry): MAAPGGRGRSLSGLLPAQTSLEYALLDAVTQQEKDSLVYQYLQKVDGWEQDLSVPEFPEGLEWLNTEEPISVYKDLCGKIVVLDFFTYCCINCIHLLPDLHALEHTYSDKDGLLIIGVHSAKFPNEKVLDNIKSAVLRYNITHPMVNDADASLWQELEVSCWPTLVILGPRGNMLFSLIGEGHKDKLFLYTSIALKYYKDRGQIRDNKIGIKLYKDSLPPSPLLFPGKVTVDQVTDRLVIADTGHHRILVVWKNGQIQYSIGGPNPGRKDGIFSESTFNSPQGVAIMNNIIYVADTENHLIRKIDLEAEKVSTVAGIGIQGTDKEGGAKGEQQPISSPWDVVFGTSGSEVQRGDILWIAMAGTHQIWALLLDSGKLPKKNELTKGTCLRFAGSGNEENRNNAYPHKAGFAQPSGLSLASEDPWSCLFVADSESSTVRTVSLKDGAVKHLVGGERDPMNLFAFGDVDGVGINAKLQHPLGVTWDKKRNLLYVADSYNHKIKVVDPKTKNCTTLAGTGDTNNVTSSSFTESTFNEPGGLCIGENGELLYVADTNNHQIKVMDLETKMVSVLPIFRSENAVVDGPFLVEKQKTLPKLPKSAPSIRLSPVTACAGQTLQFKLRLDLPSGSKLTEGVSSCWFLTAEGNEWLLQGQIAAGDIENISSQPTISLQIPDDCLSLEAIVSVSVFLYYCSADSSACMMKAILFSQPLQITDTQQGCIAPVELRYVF
# Procedure, shortened: as §1
# [6] = molecular target: T6, PLD3 (UniProt Q8IV08)
# T6 sequence (whole entry): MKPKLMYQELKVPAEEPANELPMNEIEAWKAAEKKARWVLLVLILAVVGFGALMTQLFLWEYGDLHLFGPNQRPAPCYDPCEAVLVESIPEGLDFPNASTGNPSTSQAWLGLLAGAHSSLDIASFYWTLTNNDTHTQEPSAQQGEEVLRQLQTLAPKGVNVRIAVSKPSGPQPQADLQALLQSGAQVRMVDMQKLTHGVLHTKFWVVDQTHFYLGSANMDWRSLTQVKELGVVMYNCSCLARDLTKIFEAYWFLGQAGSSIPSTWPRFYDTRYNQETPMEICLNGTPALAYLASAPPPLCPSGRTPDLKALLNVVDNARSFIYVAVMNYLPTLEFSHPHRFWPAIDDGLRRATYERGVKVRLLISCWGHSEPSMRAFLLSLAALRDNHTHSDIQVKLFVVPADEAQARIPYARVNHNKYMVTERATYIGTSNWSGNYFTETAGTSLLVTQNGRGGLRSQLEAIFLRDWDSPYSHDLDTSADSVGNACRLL
# Procedure, shortened: as §1
smiles,measurement,setting,value
Nc1nc2c(ncn2[C@@H]2O[C@H](COP(=O)(O)OP(=O)(O)OP(=O)(O)O)[C@@H](O)[C@H]2O)c(=O)[nH]1 [guanosine triphosphate],NP40-soluble protein abundance,[1]; concentration: 0.1mM,0.967 ± 0.012
same,NP40-soluble protein abundance,[1]; concentration: 0.5mM,0.984 ± 0.037
same,NP40-soluble protein abundance,[1]; concentration: 1mM,0.891 ± 0.03
same,NP40-soluble protein abundance,[1]; concentration: 2mM,0.891 ± 0.013
same,NP40-soluble protein abundance,[1]; concentration: 4mM,0.87 ± 0.021
same,NP40-soluble protein abundance,[1]; concentration: 6mM,0.904 ± 0.016
same,NP40-soluble protein abundance,[1]; concentration: 8mM,0.838 ± 0.027
same,NP40-soluble protein abundance,[1]; concentration: 10mM,0.887 ± 0.027
same,NP40-soluble protein abundance,[2]; concentration: 0.1mM,1.104 ± 0.0071
same,NP40-soluble protein abundance,[2]; concentration: 0.5mM,1.09 ± 0.077
same,NP40-soluble protein abundance,[2]; concentration: 1mM,0.917 ± 0.045
same,NP40-soluble protein abundance,[2]; concentration: 2mM,1.01 ± 0.043
same,NP40-soluble protein abundance,[2]; concentration: 4mM,0.988 ± 0.064
same,NP40-soluble protein abundance,[2]; concentration: 6mM,0.897 ± 0.037
same,NP40-soluble protein abundance,[2]; concentration: 8mM,0.892 ± 0.13
same,NP40-soluble protein abundance,[2]; concentration: 10mM,0.913 ± 0.066
same,NP40-soluble protein abundance,[3]; concentration: 0.1mM,1.01 ± 0.062
same,NP40-soluble protein abundance,[3]; concentration: 0.5mM,0.97 ± 0.11
same,NP40-soluble protein abundance,[3]; concentration: 1mM,0.915 ± 0.1
same,NP40-soluble protein abundance,[3]; concentration: 2mM,0.938 ± 0.046
same,NP40-soluble protein abundance,[3]; concentration: 4mM,0.918 ± 0.086
same,NP40-soluble protein abundance,[3]; concentration: 6mM,0.887 ± 0.055
same,NP40-soluble protein abundance,[3]; concentration: 8mM,0.885 ± 0.056
same,NP40-soluble protein abundance,[3]; concentration: 10mM,0.896 ± 0.066
same,NP40-soluble protein abundance,[4]; concentration: 0.1mM,1.04 ± 0.036
same,NP40-soluble protein abundance,[4]; concentration: 0.5mM,1.062 ± 0.0041
same,NP40-soluble protein abundance,[4]; concentration: 1mM,1.07 ± 0.014
same,NP40-soluble protein abundance,[4]; concentration: 2mM,1.048 ± 0.0046
same,NP40-soluble protein abundance,[4]; concentration: 4mM,1.05 ± 0.076
same,NP40-soluble protein abundance,[4]; concentration: 6mM,1.06 ± 0.019
same,NP40-soluble protein abundance,[4]; concentration: 8mM,1.02 ± 0.041
same,NP40-soluble protein abundance,[4]; concentration: 10mM,1 ± 0.013
same,NP40-soluble protein abundance,[5]; concentration: 0.1mM,0.983 ± 0.026
same,NP40-soluble protein abundance,[5]; concentration: 0.5mM,1 ± 0.025
same,NP40-soluble protein abundance,[5]; concentration: 1mM,0.95 ± 0.046
same,NP40-soluble protein abundance,[5]; concentration: 2mM,0.922 ± 0.036
same,NP40-soluble protein abundance,[5]; concentration: 4mM,0.924 ± 0.052
same,NP40-soluble protein abundance,[5]; concentration: 6mM,0.901 ± 0.057
same,NP40-soluble protein abundance,[5]; concentration: 8mM,0.917 ± 0.025
same,NP40-soluble protein abundance,[5]; concentration: 10mM,0.892 ± 0.043
same,NP40-soluble protein abundance,[6]; concentration: 0.1mM,0.988 ± 0.023
same,NP40-soluble protein abundance,[6]; concentration: 0.5mM,0.964 ± 0.06

# Quoted at random: 3 entries already listed.
smiles,measurement,setting,value
Nc1nc2c(ncn2[C@@H]2O[C@H](COP(=O)(O)OP(=O)(O)OP(=O)(O)O)[C@@H](O)[C@H]2O)c(=O)[nH]1 [guanosine triphosphate],NP40-soluble protein abundance,[2]; concentration: 2mM,1.01 ± 0.043
same,NP40-soluble protein abundance,[2]; concentration: 0.5mM,1.09 ± 0.077
same,NP40-soluble protein abundance,[5]; concentration: 2mM,0.922 ± 0.036
